Source: paper PMC9536578
Residue numbers refer to the chain shown, from its start. Results are given in words; binding and its absence hold for the method and conditions named. Binding seen in cells or lysates may run through a third protein. Some entries that bind do so weakly or less than the wild type. Tags and fused reporters may be left off the sequences shown.

Assays:
[1] = target: T1, GST::proCED-3 (C. elegans) (UniProt P42573); assay: pull-down; GST-tagged proteins held on Glutathione-Sepharose beads, incubated with 10 μl in vitro transcribed-translated ^35S-labeled protein for 90 minutes at 4°C in 30 mM Tris-HCl (pH 7.5), 0.5% Triton X-100, 100 mM NaCl, 2 mM MgCl2, 1 mM DTT, 0.5% BSA; autoradiography; only the target purified
T1 sequence: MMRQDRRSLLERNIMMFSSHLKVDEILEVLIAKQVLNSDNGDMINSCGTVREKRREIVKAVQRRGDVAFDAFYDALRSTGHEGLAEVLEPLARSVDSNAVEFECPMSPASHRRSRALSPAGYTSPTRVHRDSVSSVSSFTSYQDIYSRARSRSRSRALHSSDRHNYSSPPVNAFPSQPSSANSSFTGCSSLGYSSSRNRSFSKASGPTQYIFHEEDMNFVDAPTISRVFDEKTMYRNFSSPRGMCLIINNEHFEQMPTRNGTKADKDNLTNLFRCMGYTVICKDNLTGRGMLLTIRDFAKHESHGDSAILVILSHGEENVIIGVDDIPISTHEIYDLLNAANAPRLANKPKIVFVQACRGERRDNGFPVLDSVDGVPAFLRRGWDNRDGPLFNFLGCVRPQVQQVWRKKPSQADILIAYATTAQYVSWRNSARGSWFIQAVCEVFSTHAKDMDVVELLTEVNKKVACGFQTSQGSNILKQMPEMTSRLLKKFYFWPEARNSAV

[2] = target: T2, GST::proCED-3(C358S) (C. elegans) (UniProt P42573); assay: as above
T2 sequence: T1 sequence with C358S

B1: ^35S-S·TAG::ECT-2 (full-length ECT-2 protein) (protein, UniProt Q9U364 1-932)
chain: MDVSMLQSPQKRIKTIQKLAVSKKDVHDFKDIFEMLEEQKEKRNINIIQYDSLDDLSGDWSEYTFFCGNFDSDLFRTLTKHQETQALFIIGASVLKNKLLKNEDLMTLRAARPLYCELMKDVTMKLAAEVPNKRELVDLVHYMGGSVRKDTVSRTNVFIAAKVEAKVQSISLVGVPTMRADWVTECWKHRDDSYFDVMEPCFVDKHRLGVFEGLSLFFHGFKQTEIDDMLRSLENTGGKLAPSPTLATHVVYNPDNDEVETLAVSSNQVHVTKEWFWVSLHRGCCAIEDNFALPTGKLHRKPLESSSVSSPIGKSLRSQNSRSLSSMRDCSVEGPTSLNMTPDYIYSNDDVENSCKSPRQPSKRLRVCMEMVETEKNYLSLLKLVVKFKEALECEISHNEFMSRSDVAMMFGKLDPILELHERIFARLTVMSNEANTLLTVVNGKKNDDKNLDFAQVWIDAKEEMKKAYPQYINSYDTIKRLFDKQDRENSKFHTFCKAKESNPEFHRLKLTDLMVKPVQRLPSVILLLKEMAKKSDSKLKNNAEEAAKAIDEVLKTANKTREKNDNFISHLSKFTDIENVPPILVAANRMFIRELVVSPIASTSPGLQQFAKMKLFLFHDVLIITKIRSEKNTMQRLARHASFASLHSRQRRPYRYIDQIQLNTMRSAFRIRAPDEIAKCLELQQQNGSTKPNVFVWCLIHRDEQGGDIDTVFESNDDEEVRDFLDDIHVKILSDCGRFFYSSDPSDMNEINDAMVSDMTTRYFRNLCGAKPQYGHGSQMNITVSERSTQNEWSHNESFMPPPQSQSRMRRAFSNAQLTLATTLGFGRNQSRNNLGQINENTTFLQSPRVSCDPAALANMTSVGGLPGCQSESESTPKRGIRSRLTSTTFLGGRHNILGRNTSMRRQATGFAHSEKELPRSKTSSYRVTDI
modifications: ^35S-methionine-labeled
- binding [1]: binds
- binding [2]: binds
